Reference: the supplement of paper PMC7666118
This is one part of the list.

By UniProt entry, the sequences of proteins in these tests, tags left out. Where a name states a change or a piece, a line headed by the entry shows the natural chain unless it says otherwise.
UniProt Q9Y4P8: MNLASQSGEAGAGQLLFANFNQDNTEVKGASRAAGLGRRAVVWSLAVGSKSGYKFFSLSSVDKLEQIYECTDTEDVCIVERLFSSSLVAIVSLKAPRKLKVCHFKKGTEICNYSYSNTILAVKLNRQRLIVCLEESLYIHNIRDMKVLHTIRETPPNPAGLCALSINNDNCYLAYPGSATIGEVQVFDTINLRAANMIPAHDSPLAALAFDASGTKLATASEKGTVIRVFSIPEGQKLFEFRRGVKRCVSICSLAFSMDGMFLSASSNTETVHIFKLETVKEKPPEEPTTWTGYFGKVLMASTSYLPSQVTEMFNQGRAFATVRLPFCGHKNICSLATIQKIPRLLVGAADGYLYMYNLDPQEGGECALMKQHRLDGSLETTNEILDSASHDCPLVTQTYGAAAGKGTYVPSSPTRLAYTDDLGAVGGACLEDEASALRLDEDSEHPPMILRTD
UniProt Q9BRG1: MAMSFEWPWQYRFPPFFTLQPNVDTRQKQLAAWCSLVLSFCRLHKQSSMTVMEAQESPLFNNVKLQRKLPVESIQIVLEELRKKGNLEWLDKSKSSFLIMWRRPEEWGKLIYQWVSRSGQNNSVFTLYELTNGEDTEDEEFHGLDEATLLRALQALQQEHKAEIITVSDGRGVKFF
UniProt Q6P4I2: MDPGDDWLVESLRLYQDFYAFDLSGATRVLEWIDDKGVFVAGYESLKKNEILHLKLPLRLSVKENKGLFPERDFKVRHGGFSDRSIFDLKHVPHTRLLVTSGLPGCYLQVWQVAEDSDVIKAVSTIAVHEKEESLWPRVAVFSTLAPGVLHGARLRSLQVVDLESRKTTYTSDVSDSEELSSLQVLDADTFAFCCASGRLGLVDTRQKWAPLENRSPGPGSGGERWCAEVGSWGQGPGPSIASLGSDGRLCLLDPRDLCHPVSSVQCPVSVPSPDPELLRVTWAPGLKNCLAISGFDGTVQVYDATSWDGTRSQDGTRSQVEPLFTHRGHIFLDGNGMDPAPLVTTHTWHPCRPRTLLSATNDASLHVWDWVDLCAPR
UniProt P61962: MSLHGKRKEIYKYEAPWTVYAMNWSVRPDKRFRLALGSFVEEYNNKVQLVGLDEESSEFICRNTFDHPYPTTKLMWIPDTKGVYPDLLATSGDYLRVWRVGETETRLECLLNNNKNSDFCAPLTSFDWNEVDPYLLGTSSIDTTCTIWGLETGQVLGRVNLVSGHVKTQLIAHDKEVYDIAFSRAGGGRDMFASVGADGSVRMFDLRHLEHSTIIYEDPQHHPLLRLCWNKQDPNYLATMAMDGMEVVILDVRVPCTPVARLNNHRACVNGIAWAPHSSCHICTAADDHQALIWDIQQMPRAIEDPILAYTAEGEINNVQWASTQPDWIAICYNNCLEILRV
UniProt O43298: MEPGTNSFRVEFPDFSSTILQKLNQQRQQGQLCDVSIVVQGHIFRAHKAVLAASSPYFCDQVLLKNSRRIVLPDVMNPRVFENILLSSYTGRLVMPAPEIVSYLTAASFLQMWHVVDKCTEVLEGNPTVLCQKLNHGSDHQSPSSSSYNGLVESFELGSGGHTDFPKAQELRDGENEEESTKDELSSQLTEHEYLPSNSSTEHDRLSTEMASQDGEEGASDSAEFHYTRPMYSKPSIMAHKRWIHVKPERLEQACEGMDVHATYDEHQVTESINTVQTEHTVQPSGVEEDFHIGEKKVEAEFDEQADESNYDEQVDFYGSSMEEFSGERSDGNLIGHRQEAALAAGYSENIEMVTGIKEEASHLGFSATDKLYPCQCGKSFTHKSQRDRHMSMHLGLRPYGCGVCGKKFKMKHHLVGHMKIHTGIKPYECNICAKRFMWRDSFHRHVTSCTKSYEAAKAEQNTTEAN
UniProt O43829: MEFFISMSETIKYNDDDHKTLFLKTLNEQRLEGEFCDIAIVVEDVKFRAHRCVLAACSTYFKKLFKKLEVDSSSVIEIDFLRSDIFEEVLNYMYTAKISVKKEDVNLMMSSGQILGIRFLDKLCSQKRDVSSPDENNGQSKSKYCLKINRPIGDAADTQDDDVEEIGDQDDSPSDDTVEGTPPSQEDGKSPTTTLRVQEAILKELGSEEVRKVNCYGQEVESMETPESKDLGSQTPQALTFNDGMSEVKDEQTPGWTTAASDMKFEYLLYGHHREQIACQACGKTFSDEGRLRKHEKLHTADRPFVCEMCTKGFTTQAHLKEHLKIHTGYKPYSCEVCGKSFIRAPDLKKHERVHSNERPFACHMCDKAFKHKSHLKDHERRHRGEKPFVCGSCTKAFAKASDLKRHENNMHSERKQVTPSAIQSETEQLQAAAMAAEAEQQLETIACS
UniProt Q86T24: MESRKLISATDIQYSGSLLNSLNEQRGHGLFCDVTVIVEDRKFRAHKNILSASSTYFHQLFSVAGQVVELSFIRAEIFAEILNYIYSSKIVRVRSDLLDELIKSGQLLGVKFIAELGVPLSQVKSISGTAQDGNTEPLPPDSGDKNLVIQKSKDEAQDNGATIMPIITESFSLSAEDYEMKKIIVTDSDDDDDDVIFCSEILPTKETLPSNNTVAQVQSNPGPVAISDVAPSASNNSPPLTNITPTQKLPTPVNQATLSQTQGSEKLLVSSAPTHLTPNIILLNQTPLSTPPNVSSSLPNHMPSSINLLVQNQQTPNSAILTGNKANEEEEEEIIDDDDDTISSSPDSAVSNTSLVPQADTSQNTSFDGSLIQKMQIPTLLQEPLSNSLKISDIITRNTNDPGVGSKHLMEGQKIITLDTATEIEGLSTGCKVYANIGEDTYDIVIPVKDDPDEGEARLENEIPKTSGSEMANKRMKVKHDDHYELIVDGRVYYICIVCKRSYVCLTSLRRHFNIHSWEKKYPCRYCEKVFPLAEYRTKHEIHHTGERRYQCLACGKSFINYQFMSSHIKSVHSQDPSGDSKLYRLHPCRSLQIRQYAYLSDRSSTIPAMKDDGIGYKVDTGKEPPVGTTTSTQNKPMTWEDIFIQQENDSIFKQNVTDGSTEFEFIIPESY
UniProt Q92558: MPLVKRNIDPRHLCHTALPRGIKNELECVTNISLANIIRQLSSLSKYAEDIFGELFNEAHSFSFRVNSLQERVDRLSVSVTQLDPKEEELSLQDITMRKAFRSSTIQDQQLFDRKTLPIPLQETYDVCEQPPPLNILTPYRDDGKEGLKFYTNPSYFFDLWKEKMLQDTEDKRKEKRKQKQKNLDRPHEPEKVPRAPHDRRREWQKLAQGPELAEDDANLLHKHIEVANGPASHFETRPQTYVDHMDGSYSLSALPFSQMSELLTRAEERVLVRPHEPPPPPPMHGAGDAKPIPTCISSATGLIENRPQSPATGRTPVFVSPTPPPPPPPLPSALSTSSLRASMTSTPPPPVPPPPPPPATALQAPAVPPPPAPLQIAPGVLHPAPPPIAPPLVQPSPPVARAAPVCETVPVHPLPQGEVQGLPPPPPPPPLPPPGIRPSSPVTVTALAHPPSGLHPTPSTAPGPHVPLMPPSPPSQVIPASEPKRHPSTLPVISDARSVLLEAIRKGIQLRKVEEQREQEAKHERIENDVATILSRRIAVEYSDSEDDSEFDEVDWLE
UniProt P08670, whole entry: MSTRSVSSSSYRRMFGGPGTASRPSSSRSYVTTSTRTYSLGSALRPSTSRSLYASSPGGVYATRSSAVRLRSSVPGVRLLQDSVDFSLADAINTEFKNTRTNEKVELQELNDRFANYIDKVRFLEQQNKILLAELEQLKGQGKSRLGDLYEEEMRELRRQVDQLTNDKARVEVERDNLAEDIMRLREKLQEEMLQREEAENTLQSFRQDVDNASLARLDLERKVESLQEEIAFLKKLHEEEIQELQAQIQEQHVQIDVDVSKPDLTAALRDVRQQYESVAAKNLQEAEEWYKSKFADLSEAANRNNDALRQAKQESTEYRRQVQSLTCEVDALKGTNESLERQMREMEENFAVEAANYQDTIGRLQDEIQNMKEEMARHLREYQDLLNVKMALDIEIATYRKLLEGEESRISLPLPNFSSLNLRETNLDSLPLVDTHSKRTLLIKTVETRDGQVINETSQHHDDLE
UniProt Q5TAX3: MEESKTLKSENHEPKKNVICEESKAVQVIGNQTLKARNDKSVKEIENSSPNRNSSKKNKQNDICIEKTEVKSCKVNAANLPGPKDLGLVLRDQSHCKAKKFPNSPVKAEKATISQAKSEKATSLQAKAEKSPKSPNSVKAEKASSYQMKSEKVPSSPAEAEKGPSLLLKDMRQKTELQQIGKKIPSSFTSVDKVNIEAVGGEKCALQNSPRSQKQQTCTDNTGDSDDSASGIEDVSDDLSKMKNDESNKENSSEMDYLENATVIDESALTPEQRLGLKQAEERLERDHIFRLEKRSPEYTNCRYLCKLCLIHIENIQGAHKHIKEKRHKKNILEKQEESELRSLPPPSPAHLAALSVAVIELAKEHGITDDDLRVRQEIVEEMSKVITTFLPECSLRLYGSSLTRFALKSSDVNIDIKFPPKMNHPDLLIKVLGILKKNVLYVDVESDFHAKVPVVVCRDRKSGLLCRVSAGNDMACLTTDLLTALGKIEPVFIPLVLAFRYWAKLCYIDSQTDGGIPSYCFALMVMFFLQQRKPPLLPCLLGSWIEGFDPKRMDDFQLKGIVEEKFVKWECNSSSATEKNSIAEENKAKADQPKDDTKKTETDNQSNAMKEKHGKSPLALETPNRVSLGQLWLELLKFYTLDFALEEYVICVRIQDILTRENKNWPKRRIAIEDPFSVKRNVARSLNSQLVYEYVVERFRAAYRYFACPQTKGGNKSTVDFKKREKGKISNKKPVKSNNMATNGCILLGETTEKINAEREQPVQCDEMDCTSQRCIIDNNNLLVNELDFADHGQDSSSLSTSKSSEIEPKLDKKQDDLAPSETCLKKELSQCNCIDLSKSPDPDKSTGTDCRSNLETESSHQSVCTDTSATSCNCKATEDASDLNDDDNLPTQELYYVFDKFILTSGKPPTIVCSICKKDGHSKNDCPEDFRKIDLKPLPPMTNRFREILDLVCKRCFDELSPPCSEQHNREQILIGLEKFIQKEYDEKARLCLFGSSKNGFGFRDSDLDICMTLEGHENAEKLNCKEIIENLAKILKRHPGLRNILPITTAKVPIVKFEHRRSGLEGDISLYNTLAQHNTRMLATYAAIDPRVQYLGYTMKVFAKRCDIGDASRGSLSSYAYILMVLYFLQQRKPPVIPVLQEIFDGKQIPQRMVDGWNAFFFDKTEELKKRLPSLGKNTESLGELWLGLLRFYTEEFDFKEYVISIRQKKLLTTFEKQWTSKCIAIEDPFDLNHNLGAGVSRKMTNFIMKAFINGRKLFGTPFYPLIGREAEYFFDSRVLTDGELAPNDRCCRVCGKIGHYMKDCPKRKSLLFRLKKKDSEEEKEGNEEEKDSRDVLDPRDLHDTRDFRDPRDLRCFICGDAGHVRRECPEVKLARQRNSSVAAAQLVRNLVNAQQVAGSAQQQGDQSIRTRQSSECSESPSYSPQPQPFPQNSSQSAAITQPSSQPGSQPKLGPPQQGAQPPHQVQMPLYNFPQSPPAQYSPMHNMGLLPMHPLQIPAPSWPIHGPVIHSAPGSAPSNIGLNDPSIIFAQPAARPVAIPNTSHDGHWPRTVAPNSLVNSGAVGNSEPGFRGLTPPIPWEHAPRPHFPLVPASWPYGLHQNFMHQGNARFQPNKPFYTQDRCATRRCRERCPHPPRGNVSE
UniProt Q9H9H4: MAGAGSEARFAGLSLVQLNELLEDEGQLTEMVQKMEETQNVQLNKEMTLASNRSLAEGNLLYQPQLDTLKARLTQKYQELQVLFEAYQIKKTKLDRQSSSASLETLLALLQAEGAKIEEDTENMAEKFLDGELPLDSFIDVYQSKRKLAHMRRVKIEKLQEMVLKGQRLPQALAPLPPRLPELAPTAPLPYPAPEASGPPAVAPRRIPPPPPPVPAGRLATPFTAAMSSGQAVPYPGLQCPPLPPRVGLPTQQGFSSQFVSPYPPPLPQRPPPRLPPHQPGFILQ
UniProt Q7Z739: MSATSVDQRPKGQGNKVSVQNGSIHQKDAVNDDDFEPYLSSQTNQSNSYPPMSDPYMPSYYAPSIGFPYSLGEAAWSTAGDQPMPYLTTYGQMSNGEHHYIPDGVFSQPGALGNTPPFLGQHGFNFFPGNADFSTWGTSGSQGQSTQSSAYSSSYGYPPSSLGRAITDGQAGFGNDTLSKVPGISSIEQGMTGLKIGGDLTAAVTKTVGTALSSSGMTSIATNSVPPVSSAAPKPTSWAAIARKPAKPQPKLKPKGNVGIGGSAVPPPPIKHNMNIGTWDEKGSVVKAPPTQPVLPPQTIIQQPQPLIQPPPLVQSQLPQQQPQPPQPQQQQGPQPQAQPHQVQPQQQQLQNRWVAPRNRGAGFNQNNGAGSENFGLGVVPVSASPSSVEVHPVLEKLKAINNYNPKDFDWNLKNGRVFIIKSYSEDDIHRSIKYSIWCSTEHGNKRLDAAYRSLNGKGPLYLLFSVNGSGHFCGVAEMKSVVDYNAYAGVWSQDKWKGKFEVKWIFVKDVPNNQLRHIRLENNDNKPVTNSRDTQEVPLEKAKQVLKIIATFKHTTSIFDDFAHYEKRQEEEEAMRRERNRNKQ

These targets were tested with COc1ccc(Cn2ccc3ccc(C(=O)NO)cc32)cc1 (assay: dose-dependent thermal stabilisation call (2D-TPP, DLPTP, 10% FDR) (binary (1 = stabilised)); higher = stabilised by the compound). Conditions: system: HL-60 intact cells; concentration range 0.04-10 µM.

Target | dose-dependent thermal stabilisation call
WIPI2 (UniProt Q9Y4P8) | inactive: 0
ZC3H13 (UniProt Q5T200) | inactive: 0
ZDHHC2 (UniProt Q9UIJ5) | inactive: 0
VTI1A (UniProt Q96AJ9) | inactive: 0
VGLL4 (UniProt Q14135) | inactive: 0
VPS35 (UniProt Q96QK1) | inactive: 0
WBP2 (UniProt Q969T9) | inactive: 0
XPO4 (UniProt Q9C0E2) | inactive: 0
ZAK (UniProt Q9NYL2) | inactive: 0
YWHAQ (UniProt P27348) | inactive: 0
ZDHHC5 (UniProt Q9C0B5) | inactive: 0
VPS16 (UniProt Q9H269) | inactive: 0
VAPA (UniProt Q9P0L0) | inactive: 0
VPS18 (UniProt Q9P253) | inactive: 0
VPS25 (UniProt Q9BRG1) | inactive: 0
WDR73 (UniProt Q6P4I2) | inactive: 0
VARS (UniProt P26640) | inactive: 0
WDR68 (UniProt P61962) | inactive: 0
WDR26 (UniProt Q9H7D7) | inactive: 0

Target | dose-dependent thermal stabilisation call
ZFP36L2 (UniProt P47974) | inactive: 0
VPS37C (UniProt A5D8V6) | inactive: 0
ZBTB43 (UniProt O43298) | inactive: 0
VAPB (UniProt O95292) | inactive: 0
WDR6 (UniProt Q9NNW5) | inactive: 0
WDR55 (UniProt Q9H6Y2) | inactive: 0
ZC3H11A (UniProt O75152) | inactive: 0
ZFP161 (UniProt O43829) | inactive: 0
ZBTB33 (UniProt Q86T24) | inactive: 0
WASF1 (UniProt Q92558) | inactive: 0
ZNF280C (UniProt Q8ND82) | inactive: 0
VIM (UniProt P08670) | inactive: 0
ZCCHC11 (UniProt Q5TAX3) | inactive: 0
VPS37B (UniProt Q9H9H4) | inactive: 0
ZC3H4 (UniProt Q9UPT8) | inactive: 0
USP8 (UniProt P40818) | inactive: 0
YTHDF3 (UniProt Q7Z739) | inactive: 0
VRK1 (UniProt Q99986) | inactive: 0

No new results follow: an excerpt of the list.
Target | dose-dependent thermal stabilisation call
ZBTB33 (UniProt Q86T24) | inactive: 0
WASF1 (UniProt Q92558) | inactive: 0
ZNF280C (UniProt Q8ND82) | inactive: 0
